This assay is described as follows: IkB Signaling. As to conditions: ABC-DLBCL IkBa-CBG/CBR dual luciferase ratio (green luciferase fused to IkBa over red control in OCI-Ly3 lymphoma cells), 4 h. The method in brief:
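Luminescence ratio of IκBα-fused green versus native red beetle luciferase in OCI-Ly3 cells, 4 h post-doxycycline with compound; red signal alone, scaled from basal (0%) to zero light (-100%), flagged nonspecific or cytotoxic effects.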

Where [1] appears, read: measured here: control luc red channel unless noted.

Structures are written as SMILES. The list shows a part of the results. These are further read-outs of the screen, such as a control signal, another cell line or another target. No call is given for them. The list favours compounds with an active or inconclusive main result. Words in brackets tell the shape of the fitted curve; partial curves, single points and poor fits give uncertain potencies.

Data on 38 compounds can be found in PubChem BioAssay AID445 (National Center for Advancing Translational Sciences (NCATS), 2006).

Regarding `O=C(Nc1c(C(=O)Nc2ccc3c(c2)OCCO3)cnn1-c1ccccc1Cl)c1ccco1`, the half-maximal activity concentration (AC50) under setting [1] was 10 µM [falling, partial curve].
Consider `Cc1ccc(-c2cc(C(=O)NCc3ccco3)c3ccccc3n2)o1`, for which the half-maximal activity concentration (AC50) under setting [1] is 25.1 µM [rising, partial curve] [measured here: IkB-luc green channel].
For the compound `CCN(C(=O)CSc1nc2ncccc2[nH]1)c1ccc(C(C)C)cc1`, the AC50 under setting [1] was 39.8 µM [falling, single point].
Still for that read-out and setting: the result for `O=C(COc1ccc(Cl)cc1)Nc1nnc(S(=O)(=O)N2CCc3ccccc32)s1` reads 12.6 µM [falling, partial curve]; that for `CCOc1ccc(NC(=O)c2cnc(N3CCCC3)nc2C)cc1`, 39.8 µM [falling, partial curve].
For `COc1ccc(CNc2nc3c(-c4cccc(C)c4)nnn3c3ccccc23)cc1`, under setting [1], the concentration at half-maximal activity (AC50) is 0.794 µM [falling, partial curve].
With `CCOc1ccc(CCNC(=O)c2cn(C)c3ccc(S(=O)(=O)N4CCCCCC4)cc3c2=O)cc1OCC`, under setting [1], the AC50 is 3.98 µM [rising, partial curve].
Same read-out and setting: the result for `CC(C)c1ccc(NC(=O)Cn2cc(S(=O)(=O)N3CCN(c4ccccc4F)CC3)c3ccccc3c2=O)cc1` reads 2 µM [falling, full curve]; that for `O=C(c1ccc2c(c1)N(Cc1cccc(F)c1)C(=O)c1ccccc1S2)N1CCOCC1`, 15.8 µM [falling, partial curve]; that for `COc1ccc(/C=C/C(=O)Nc2ccc3nc4c(c(Nc5ccccc5OC)c3c2)CCCC4)cc1`, 3.16 µM [falling, full curve].
Same read-out and setting: the result for `CC(=O)N1c2c(cc(Br)cc2S(=O)(=O)N2CCN(c3cc(C)ccc3C)CC2)CC1C` (centres undefined) reads 10 µM [falling, partial curve]; that for `Cc1ccccc1CN1C(=O)c2ccccc2S(=O)c2ccc(C(=O)NC3CCC(C)CC3)cc21` (centres undefined), 10 µM [falling, partial curve]; that for `Cc1cc(Oc2ccccc2)nc2ccc(O)cc12`, 0.2 µM [rising, full curve, poor fit].
As for `COc1ccc(C2SCCN2S(=O)(=O)c2ccc(F)cc2)cc1OC` (centres undefined), under setting [1], the AC50 is 39.8 µM [falling, single point].
On the same count and under the same terms, the result for `CC(Oc1ccc(F)cc1)C(=O)N1CCC(c2nc3ccccc3s2)CC1` (centres undefined) reads 15.8 µM [falling, partial curve]; that for `Cc1cc(C)cc(NC(=O)C(Cc2ccccc2)NS(=O)(=O)c2ccc3c(c2)c(=O)n(C)c(=O)n3C)c1` (centres undefined), 20 µM [falling, partial curve].
For `COc1ccccc1N1CCN(C(=O)c2nc(SC)ncc2Cl)CC1`, the AC50 under setting [1] is 3.98 µM [rising, full curve].
With `CCCCC(=O)Nc1cccc(NC(=O)c2ccc3c(c2)OCO3)c1`, under setting [1], the AC50 is 15.8 µM [falling, partial curve].
On the same count and under the same terms, the same measure for `CCOc1ccc(N2CC(c3nc4ccccc4n3CCCOc3ccccc3)CC2=O)cc1` (centres undefined): 25.1 µM [falling, partial curve]; for `Cc1c(C(=O)NCC(c2ccc(Cl)cc2)N2CCOCC2)oc2ccccc12` (centres undefined): 31.6 µM [falling, partial curve].
Turning to `CCCCOC(=O)c1ccc(NC(=O)c2cc3c(=O)n4cccc(C)c4nc3s2)cc1`, the AC50 under setting [1] is 15.8 µM [falling, partial curve].
The same measure, in the same setting: the same measure for `Cc1cc2nc(-c3ccc(SCC(=O)N4CCN(C(=O)c5ccco5)CC4)nc3)[nH]c2cc1C`: 10 µM [falling, partial curve]; for `CC(C)(C)OC(=O)N1CCC(c2c(C(=O)NCCN3CCc4ccccc4C3)cnn2-c2ccc(F)cc2F)CC1`: 39.8 µM [falling, single point].
Still for that read-out and setting: the result for `CCC1CCCCN1Cc1ccc(CNS(=O)(=O)c2ccc3c(c2)oc(=O)n3C)o1` (centres undefined) reads 1.26 µM [falling, full curve]; that for `Cc1ccc(NC(=O)CCn2c(=O)c3cccn3c3ccccc32)cc1C`, 25.1 µM [falling, single point].
`CCC(=O)N1CCc2cc(Br)cc(S(=O)(=O)CCC(=O)NCCc3cccc(C)c3)c21`: the AC50 under setting [1] is 1.58 µM [rising, partial curve].
Turning to `CC(C)c1nnc(SCC(=O)NCc2ccco2)n1C`, the AC50 under setting [1] is 20 µM [rising, single point] [measured here: IkB-luc green channel].
Consider `Cc1ccccc1OCC(=O)Nc1ccc2nc(SCC(N)=O)sc2c1`, for which the half-maximal activity concentration (AC50) under setting [1] is 31.6 µM [falling, partial curve].
The same measure, in the same setting: the result for `Cc1ccc(C2CC(C(F)(F)F)n3ncc(C(=O)NCc4ccco4)c3N2)cc1` (centres undefined) reads 12.6 µM [falling, partial curve]; that for `CCOC(=O)c1ccc(NC(=O)Nc2ccc(OC)c(OC)c2)cc1`, 12.6 µM [falling, partial curve].
`O=C(NCCOC(=O)c1ccc(S(=O)(=O)N2CCOCC2)cc1)c1cccnc1`: the half-maximal activity concentration (AC50) under setting [1] is 3.16 µM [rising, partial curve] [measured here: IkB-luc green channel].
The same measure, in the same setting: the same measure for `COc1ccccc1N1CCN(Cc2nnc(-c3ccccc3C)o2)CC1`: 31.6 µM [falling, single point].
For the compound `O=S(=O)(Nc1ccc(C(F)(F)F)cc1)c1ccc2c(c1)OCCO2`, under setting [1], the half-maximal activity concentration (AC50) is 15.8 µM [falling, partial curve].
As for `O=C(Cn1ncn2c(cc3ccccc32)c1=O)NCc1ccco1`, the AC50 by setting is: (measured here: IkB-luc green channel) 31.6 µM [rising, single point]; (measured here: control luc red channel) 31.6 µM [falling, single point].
As to `O=C(NCCCc1nc2ccccc2n1Cc1cccc(Cl)c1)C1CCCCC1`, the half-maximal activity concentration (AC50) under setting [1] is 15.8 µM [falling, partial curve].
The same measure, in the same setting: the same measure for `O=C(c1ccc2c(c1)N(Cc1ccc(Cl)cc1)C(=O)c1ccccc1S2=O)N1CCC(Cc2ccccc2)CC1` (centres undefined): 3.98 µM [falling, partial curve]; for `COc1ccc(NC(=O)Cn2nc(C(F)(F)F)c3c2CCCC3)cc1OC`: 31.6 µM [falling, partial curve, poor fit]; for `Cc1cccc(N2CCN(C(=O)c3ccc4c(Cl)c5c(nc4c3)CCCC5)CC2)c1C`: 10 µM [falling, partial curve].

Usually AC50 stands for the midpoint of the concentration-response curve, whichever way the signal moves.
